Measurements: patent US10744152B2, “Application of Asarum total polysaccharides in preparation of medicine for treating cough” (THE FIRST AFFILIATED HOSPITAL OF GUANGZHOU MEDICAL …, priority 2014, dated 2020)
For at least one compound, name, drawing or mass did not settle the structure.

Test system: guinea pig models with cough hypersensitivity
Assay: Histopathological observation (HE staining) of lung and tracheal tissues of guinea pig models with cough hypersensitivity
Conditions: 30 mg/kg, 14 days

## COc1ccc2c3c1O[C@H]1[C@@H](O)C=C[C@H]4[C@@H](C2)N(C)CC[C@@]341 [Codeine phosphate, codeine phosphate]
  pathology of the lung tissues compared with the model group: also improved
  tracheal pathology compared with the model group: not improved obviously
